Assay results from doi:10.1101/2023.08.20.554038.
Results are given in words; binding and its absence hold for the method and conditions named. Binding seen in cells or lysates may run through a third protein. Here binding means that the protein was enriched with, or labelled near, the bait; the list need not be complete.

The chains behind the UniProt entries cited, without tags or fusion partners.
UniProt P12367: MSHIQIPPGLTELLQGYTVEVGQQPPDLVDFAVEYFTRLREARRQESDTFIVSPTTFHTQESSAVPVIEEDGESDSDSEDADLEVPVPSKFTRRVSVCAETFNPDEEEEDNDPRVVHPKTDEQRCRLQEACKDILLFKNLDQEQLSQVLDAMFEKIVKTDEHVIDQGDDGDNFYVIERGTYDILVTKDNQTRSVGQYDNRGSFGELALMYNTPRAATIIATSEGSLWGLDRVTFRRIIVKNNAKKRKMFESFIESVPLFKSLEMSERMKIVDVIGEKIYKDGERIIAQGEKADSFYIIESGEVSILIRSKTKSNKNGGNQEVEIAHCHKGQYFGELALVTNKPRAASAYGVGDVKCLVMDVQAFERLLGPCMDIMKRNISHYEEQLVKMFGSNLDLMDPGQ
UniProt Q9Y490: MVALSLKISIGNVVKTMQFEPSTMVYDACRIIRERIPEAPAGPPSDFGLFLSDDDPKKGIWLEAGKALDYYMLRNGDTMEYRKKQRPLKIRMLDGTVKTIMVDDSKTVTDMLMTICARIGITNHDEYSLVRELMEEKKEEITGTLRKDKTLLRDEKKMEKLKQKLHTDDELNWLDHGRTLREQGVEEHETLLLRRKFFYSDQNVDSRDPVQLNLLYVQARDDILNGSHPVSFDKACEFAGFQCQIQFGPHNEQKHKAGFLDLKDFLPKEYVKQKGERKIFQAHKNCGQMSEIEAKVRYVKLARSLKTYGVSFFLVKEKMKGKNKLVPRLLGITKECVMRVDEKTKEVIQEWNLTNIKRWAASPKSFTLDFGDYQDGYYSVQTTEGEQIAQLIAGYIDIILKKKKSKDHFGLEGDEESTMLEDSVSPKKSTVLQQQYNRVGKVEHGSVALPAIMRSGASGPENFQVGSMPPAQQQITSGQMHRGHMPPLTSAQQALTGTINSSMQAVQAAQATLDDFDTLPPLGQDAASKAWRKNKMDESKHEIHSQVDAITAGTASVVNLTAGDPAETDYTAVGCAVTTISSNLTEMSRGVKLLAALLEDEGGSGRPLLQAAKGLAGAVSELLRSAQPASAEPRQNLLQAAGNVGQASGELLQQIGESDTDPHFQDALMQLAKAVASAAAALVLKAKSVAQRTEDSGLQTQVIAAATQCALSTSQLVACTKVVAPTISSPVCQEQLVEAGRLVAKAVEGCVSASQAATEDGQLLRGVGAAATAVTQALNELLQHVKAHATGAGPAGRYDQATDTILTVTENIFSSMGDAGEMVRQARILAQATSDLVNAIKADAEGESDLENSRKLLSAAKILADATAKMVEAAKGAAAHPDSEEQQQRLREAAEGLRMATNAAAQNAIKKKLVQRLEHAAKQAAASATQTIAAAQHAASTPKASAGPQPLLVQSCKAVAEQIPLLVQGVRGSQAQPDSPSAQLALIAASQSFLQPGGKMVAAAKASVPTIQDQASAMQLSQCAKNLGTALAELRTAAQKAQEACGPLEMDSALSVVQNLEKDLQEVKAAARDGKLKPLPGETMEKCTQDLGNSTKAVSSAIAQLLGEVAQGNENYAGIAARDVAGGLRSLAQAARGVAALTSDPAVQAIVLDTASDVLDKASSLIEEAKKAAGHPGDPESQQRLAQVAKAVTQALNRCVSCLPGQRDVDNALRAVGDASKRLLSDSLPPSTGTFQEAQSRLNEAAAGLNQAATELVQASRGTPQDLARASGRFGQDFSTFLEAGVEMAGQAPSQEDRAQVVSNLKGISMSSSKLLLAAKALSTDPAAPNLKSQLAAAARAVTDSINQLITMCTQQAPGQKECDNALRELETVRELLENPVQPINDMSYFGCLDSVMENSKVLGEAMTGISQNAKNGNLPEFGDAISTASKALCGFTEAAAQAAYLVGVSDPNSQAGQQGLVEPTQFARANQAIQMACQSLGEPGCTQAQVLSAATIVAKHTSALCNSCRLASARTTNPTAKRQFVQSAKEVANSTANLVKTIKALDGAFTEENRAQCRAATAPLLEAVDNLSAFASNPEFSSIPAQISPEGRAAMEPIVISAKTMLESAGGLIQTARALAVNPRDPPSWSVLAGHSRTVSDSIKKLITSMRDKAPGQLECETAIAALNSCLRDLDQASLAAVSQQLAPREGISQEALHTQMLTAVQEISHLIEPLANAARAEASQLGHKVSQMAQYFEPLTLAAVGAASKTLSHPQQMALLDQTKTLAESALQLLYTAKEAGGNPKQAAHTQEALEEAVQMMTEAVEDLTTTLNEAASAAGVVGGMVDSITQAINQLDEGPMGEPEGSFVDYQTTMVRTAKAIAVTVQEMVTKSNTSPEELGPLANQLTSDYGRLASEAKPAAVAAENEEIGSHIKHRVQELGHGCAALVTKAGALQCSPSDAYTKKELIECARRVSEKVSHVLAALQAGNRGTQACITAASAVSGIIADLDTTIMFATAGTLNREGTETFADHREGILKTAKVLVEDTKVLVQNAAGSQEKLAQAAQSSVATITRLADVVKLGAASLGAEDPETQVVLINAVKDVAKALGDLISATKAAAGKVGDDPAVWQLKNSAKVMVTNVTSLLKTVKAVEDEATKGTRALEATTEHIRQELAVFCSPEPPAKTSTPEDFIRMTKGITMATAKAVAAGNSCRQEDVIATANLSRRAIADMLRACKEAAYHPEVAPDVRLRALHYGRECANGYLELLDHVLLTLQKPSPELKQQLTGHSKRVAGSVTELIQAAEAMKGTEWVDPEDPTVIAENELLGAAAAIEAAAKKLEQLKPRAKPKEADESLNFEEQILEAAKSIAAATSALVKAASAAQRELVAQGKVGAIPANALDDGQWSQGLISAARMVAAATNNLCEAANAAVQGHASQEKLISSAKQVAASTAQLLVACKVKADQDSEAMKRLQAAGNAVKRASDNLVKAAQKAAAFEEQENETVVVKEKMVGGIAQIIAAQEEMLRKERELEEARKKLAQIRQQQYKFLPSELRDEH
UniProt Q9Y4G6: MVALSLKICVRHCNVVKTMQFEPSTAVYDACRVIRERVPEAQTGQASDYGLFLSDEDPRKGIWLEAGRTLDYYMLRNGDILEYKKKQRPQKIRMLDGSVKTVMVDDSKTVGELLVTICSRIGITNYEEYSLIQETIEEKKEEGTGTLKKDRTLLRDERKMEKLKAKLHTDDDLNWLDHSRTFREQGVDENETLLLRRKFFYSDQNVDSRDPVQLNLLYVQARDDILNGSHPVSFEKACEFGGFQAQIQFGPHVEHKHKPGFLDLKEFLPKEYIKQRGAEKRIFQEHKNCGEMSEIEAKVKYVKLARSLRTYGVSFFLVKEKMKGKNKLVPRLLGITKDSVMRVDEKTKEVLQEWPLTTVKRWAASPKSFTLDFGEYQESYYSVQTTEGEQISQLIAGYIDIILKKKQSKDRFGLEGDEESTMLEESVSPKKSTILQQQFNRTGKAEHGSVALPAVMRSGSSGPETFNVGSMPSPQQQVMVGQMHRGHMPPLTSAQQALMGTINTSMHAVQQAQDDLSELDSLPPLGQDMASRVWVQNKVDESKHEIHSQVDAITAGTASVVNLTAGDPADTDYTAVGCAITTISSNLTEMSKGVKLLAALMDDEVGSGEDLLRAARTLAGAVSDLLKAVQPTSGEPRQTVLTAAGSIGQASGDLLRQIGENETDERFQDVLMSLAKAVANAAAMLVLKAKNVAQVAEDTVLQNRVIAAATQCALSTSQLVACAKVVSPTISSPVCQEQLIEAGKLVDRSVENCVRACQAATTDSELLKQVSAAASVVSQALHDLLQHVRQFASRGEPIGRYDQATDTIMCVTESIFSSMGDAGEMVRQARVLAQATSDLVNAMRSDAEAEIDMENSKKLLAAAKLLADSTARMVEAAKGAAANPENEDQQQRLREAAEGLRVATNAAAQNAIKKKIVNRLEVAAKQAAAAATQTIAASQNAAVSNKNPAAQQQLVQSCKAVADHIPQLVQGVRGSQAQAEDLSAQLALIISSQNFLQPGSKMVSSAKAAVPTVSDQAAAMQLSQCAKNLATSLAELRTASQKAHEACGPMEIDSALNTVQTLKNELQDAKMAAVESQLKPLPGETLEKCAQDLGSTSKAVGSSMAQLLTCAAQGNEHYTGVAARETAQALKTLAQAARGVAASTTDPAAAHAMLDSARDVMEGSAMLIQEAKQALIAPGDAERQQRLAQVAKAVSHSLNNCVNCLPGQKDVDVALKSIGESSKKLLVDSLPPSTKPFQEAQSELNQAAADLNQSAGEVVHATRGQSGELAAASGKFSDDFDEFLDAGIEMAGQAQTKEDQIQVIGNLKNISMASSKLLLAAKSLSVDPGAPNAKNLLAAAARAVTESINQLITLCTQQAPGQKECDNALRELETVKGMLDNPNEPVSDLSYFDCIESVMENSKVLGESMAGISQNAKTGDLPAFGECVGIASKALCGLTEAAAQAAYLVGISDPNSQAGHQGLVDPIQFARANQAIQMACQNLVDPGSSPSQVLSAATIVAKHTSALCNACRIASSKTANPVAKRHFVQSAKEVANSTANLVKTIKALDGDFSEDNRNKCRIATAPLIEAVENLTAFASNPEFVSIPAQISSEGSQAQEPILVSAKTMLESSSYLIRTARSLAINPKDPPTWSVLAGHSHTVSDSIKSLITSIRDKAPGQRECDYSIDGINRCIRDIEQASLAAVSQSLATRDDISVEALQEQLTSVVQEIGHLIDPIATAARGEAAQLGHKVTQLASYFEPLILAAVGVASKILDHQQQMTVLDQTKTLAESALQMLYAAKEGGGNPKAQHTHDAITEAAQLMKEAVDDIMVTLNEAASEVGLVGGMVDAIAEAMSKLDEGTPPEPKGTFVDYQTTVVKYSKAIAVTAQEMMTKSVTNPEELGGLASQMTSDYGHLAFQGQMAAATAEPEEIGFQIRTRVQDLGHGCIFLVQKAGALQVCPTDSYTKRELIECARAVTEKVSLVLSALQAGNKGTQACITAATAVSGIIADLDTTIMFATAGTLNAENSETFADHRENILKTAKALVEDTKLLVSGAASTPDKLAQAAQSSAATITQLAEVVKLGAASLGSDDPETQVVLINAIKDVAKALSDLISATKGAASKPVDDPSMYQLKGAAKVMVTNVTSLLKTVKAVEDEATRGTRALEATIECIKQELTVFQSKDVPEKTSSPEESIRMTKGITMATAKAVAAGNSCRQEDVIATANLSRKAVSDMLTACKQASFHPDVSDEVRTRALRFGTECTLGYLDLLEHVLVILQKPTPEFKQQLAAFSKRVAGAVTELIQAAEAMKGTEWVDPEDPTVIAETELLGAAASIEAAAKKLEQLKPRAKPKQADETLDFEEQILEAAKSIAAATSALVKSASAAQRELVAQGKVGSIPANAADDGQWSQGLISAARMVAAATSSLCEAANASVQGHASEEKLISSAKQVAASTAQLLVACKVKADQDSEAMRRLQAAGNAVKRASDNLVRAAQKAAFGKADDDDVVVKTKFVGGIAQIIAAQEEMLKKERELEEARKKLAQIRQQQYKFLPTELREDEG

Target: V5 epitope-tagged murine PKA RIIα fused to miniTurbo biotin ligase (V5-RIIα-mTb), wild type (mouse) (UniProt P12367)
Assay: proximity labelling

| Substance | binding |
| --- | --- |
| talin1 (from UniProt Q9Y490 1-2541) | binds |
| talin2 (from UniProt Q9Y4G6 1-2542) | binds |
